Measured values reported in US20240392013A1, “IL1RAP ANTIBODIES AND USES THEREOF” (STELEXIS THERAPEUTICS, LLC, priority 2021, published 2024).
No constants are given. Whether binding was seen depends on the method and setting. Some binding calls cover weakened binding; strength is not graded here.

The chains behind the UniProt entries cited, without tags or fusion partners. Where a name states a change or a piece, a line headed by the entry shows the natural chain unless it says otherwise. Residues count along the entry.
UniProt Q9NPH3, residues 21-367: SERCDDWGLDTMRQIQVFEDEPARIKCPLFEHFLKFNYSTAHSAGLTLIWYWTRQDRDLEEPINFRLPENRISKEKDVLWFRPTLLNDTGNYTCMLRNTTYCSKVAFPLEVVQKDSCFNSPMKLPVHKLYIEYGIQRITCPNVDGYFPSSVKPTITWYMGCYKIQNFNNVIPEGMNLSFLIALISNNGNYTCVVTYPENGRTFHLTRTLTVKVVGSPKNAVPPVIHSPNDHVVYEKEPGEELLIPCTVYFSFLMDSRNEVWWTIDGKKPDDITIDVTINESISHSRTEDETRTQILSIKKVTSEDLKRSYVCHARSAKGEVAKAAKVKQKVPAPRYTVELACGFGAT

Molecular target: recombinant human IL1RAP protein, extracellular domain His-tagged (Sino Biological, Cat #10121-H08H) (human) (UniProt Q9NPH3)
Assay: summary of Example 1 (ELISA, Octet)

binding | Binder
binds | STLX2045 (antibody, V domains shown) VH: EVQLVESGGGLVKPGGSLRLACAATGFTFSNVWMSWVRQGSGKGLEWVGRIKSKADGGTIDYAAPVKGRFTISRDDSKNTLYLQMNSLKTEDTAMYYCTTGELLGFDYWGQGTLVTVSS VL: DIVMTQSPLSLPVTPGEPASISCRSGQSLLHSNGFNCLAWYLQKPGQSPQLLIYLGSNRASGVPDRFSGSGSGTDFTLKISRVEAEDVGVYYCMQTLQTPITFGQGTRLEIK
binds | STLX2025 (antibody, V domains shown) VH: QVQLVQSGAEVKKPGSSVKVSCKASGDTFSNYAITWVRQAPGQGLEWIVGFSPIFGTANYAQKFQGRVTITADKSTSTAYMELSSLISEDTAVYYCAWGSGNFNWFDPWGQGTLVTVSS VL: AIRMTQSPSSFSASTGDRVTITCRASQGISSYLAWYQQKPGKAPKLLIYAASTLQSGVPSRFSGSGSGTDFTLTISSLQSEDFATYYCQQYYSYPLTFGGGTKVEIK
